Patent US7439343B2, “Aminoglycoside-polyamine displacers and methods of use in displacement chromatography” (Rensselaer Polytechnic Institute, priority 2005, dated 2008)
Some entries share one result that the patent states for a list of compounds.

What was measured:
[1] = target: horse cytochrome-C on HP Sepharose SP; assay: Batch displacement assay, cytochrome-C on HP Sepharose SP; type: binding; settings: input displacer concentration displacing 50% of bound protein; 50 mM phosphate, pH 6.0
Text: A modified batch displacement assay was used to investigate displacer efficacy of the carbohydrate derivatives over a wide range of concentrations. The carbohydrate derivatives from hereon will be referred to as the displacer candidates unless otherwise specified. Different input concentrations of the displacer candidates were employed to determine the DC50 value, which is the input displacer concentration required to displace fifty percent of the initially bound protein. The lower the DC50 value the more efficacious is the displacer candidate.
Table 1 is of displacer candidates and their respective DC50 values of horse cytochrome-C on HP Sepharose SP and Source 15S cation exchange resins in accordance with the present invention. Column 201 is the displacer candidate evaluated. […]
The protein was equilibrated with the resin for five hours in order to attain complete equilibration during which, the stationary phase was allowed to gravity-settle. Upon settling, the supernatant was removed and the protein content in the supernatant was determined using absorbance detection at 280 or 405 nm using a plate reader. The mass of the protein adsorbed on the stationary phase was determined by mass balance. […]
The percent protein displaced, was calculated for each aliquot based on the protein mass balance and the data was plotted as a function of the initial displacer concentration. […]

[2] = tested on: DNA; assay: Ethidium bromide displacement assay (DNA binding); design: species or system calf; settings: 96-well format
Text: A method for condensing DNA comprising combining the DNA with at least one of the aforementioned derivatives of a carbohydrate compound wherein the DNA is bound to the carbohydrate compound is presented in accordance with the present invention. FIG. 3 depicts a graph of DNA binding efficacy of the displacer candidates in an embodiment of the present invention. The Y axis is % fluorescence decreased and the X axis is the carbohydrate derivative evaluated.
Referring to FIG. 3, an ethidium bromide displacement assay was employed to evaluate the DNA-binding affinity of carbohydrate derivatives in a 96-well format. Using this screen, the percent fluorescence decreased was used as a parameter to rank the DNA-binding efficacy of the various compounds.

DC50 [1] [mM]	% fluorescence decreased [2]	SMILES
2.7 to 2.8	–	NCCCNCCCCNCCCNC(=O)NC1C(OCc2ccccc2)OC(COC(=O)NCCCNCCCCNCCCN)C(O)C1O (stereo not shown) [4d]
2.7 to 2.8	greater than 60%	NCCCNCCCCNCCCNC(=O)NC1C(O)OC(COC(=O)NCCCNCCCCNCCCN)C(O)C1O (stereo not shown) [4a]
–	greater than 60%	COC1OC(COC(=O)NCCCNCCCCNCCCN)C(O)C(O)C1NC(=O)NCCCNCCCCNCCCN (stereo not shown) [4b]
